Results published in patent US20090202508A1, “NEGATIVE REGULATION OF HYPOXIA INDUCIBLE FACTOR 1 BY OS-9” (THE JOHNS HOPKINS UNIVERSITY, priority 2004, published 2009).
Results are given in words; binding and its absence hold for the method and conditions named. For some of these results: In cells and extracts the contact can be indirect. Some binding calls cover weakened binding; strength is not graded here. Where a sequence is shown, tags or fusion partners need not be part of it.

Amino acid sequences for entries named in this document (tags omitted).
UniProt Q9H6Z9: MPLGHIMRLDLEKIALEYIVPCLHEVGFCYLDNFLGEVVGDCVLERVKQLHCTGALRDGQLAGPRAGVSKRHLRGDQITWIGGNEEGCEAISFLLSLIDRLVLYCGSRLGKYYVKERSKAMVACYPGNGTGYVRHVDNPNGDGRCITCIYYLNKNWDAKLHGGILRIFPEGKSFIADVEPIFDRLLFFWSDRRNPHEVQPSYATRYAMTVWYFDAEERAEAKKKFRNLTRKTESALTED

Columns and labels:
[1] = molecular target: T1, HA-OS-9 (hemagglutinin epitope-tagged human OS-9) (human) (UniProt Q13438); assay: GST pull-down of 35S-labelled in vitro-translated HA-OS-9, SDS-PAGE and autoradiography
T1 sequence (35S-methionine labelled when in vitro-translated, looked up): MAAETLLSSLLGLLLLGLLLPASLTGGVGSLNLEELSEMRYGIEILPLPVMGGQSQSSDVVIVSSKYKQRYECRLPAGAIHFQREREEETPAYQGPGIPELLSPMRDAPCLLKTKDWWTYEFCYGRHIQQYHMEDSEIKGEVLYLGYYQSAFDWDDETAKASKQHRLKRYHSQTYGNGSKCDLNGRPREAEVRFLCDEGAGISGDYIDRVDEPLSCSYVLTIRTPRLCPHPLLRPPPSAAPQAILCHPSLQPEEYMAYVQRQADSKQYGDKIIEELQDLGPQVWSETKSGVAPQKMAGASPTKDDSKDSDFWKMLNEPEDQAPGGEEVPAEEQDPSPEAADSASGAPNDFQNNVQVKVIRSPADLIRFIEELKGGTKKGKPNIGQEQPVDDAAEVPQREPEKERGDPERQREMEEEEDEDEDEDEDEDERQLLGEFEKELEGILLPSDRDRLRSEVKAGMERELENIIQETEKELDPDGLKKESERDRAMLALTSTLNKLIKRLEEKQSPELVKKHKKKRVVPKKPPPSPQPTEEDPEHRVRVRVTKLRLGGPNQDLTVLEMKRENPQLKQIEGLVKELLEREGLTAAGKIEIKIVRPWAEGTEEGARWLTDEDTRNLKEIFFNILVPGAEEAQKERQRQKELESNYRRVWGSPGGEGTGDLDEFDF

[2] = molecular target: PHD3 (HIF-1α prolyl hydroxylase 3) (UniProt Q9H6Z9); assay: co-immunoprecipitation with anti-HA from transfected 293 cells, immunoblot with anti-PHD3
[3] = molecular target: PHD3 (HIF-1α prolyl hydroxylase 3) (UniProt Q9H6Z9); assay: legend of FIG. 5: anti-HA immunoprecipitation from 293 cells, immunoblot for each PHD isoform
[4] = molecular target: GST-HIF-1α (531-826) [GST: P08515]; assay: GST pull-down of in vitro-translated OS-9 on GST-HIF-1α (531-826) preincubated with lysate, with desferrioxamine; autoradiography

For “GST-HIF-1α (531-826) (from UniProt P08515 1-218; Q16665 531-826)”, the binding [1] was “binds”.

B1: HA-OS-9 (hemagglutinin epitope-tagged human OS-9) (protein, UniProt Q13438 1-667, looked up, not shown: small tags and cut ends)
chain: MAAETLLSSLLGLLLLGLLLPASLTGGVGSLNLEELSEMRYGIEILPLPVMGGQSQSSDVVIVSSKYKQRYECRLPAGAIHFQREREEETPAYQGPGIPELLSPMRDAPCLLKTKDWWTYEFCYGRHIQQYHMEDSEIKGEVLYLGYYQSAFDWDDETAKASKQHRLKRYHSQTYGNGSKCDLNGRPREAEVRFLCDEGAGISGDYIDRVDEPLSCSYVLTIRTPRLCPHPLLRPPPSAAPQAILCHPSLQPEEYMAYVQRQADSKQYGDKIIEELQDLGPQVWSETKSGVAPQKMAGASPTKDDSKDSDFWKMLNEPEDQAPGGEEVPAEEQDPSPEAADSASGAPNDFQNNVQVKVIRSPADLIRFIEELKGGTKKGKPNIGQEQPVDDAAEVPQREPEKERGDPERQREMEEEEDEDEDEDEDEDERQLLGEFEKELEGILLPSDRDRLRSEVKAGMERELENIIQETEKELDPDGLKKESERDRAMLALTSTLNKLIKRLEEKQSPELVKKHKKKRVVPKKPPPSPQPTEEDPEHRVRVRVTKLRLGGPNQDLTVLEMKRENPQLKQIEGLVKELLEREGLTAAGKIEIKIVRPWAEGTEEGARWLTDEDTRNLKEIFFNILVPGAEEAQKERQRQKELESNYRRVWGSPGGEGTGDLDEFDF
modifications: 35S-methionine labelled when in vitro-translated
With B1 the binding [2] was “binds”, the binding [3] was “binds” and the binding [4] was “binds”.
